Where “and” joins values, the source holds several entries; their conditions need not be identical. Equal entries are not always repeated. Screen size: about 400,000 compounds; about 13,000 (3.2%) were called active. Inconclusive means that the source gave no clear call. Such entries were picked first, then a sample of the others. The call rests on the fitted dose curve; in most records, active means well fitted cell-killing curve with a large enough effect; inconclusive means small, poorly fitted or top-dose-only effect, or effect the other way; inactive means flat fitted curve, though single readings scatter. A potency beside an inconclusive call is a rough fit, not a confirmed value.
assay: qHTS assay for MDR1-selective chemotherapeutics: Primary screen using the drug-selected MDR subline cells KB-V1; conditions: KB-V1 MDR cells viability, CellTiter-Glo, 72 h; series mostly up to 46.1 µM; further: nearly all actives have a fitted effect of over 60% in size
Procedure, shortened: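 Cytotoxicity toward P-gp-expressing KB-V1 cells was determined as loss of CellTiter-Glo luminescence after 72 h at 37 degrees C. Compounds were tested in quantitative HTS format across a concentration range, with curves fitted to normalized data.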
Potency means the concentration at half of the fitted maximal effect.

SMILES | Potency
COc1ccc(Cl)cc1NC(=O)CN(C)C(=O)c1cccc(-n2cnnn2)c1 | inactive
CCOc1ccc(CC(=O)Nc2ccc(NC(=O)c3ccco3)cc2)cc1OCC | inconclusive: 8.2 µM [cytotoxic, partial curve]
O=C(COc1ccccc1F)N1CCN(S(=O)(=O)/C=C/c2ccccc2)CC1 | active: 14.6 µM
O=C1NC(Cc2ccc(O)cc2)c2nc3cc(Cl)ccc3c(=O)n2-c2cc3ccccc3cc21 (stereo unspecified) | inconclusive: 4.11 µM [cytotoxic, partial curve, poor fit]
CCOC(=O)c1c(CN2CCCCC2)oc2ccc(OC)cc12 | inconclusive: 16.4 µM [cytotoxic, partial curve] and active: 9.2 µM
COc1cc(C(=O)N2CCN(Cc3ccccc3C(F)(F)F)CC2)cc(OC)c1OC | active: 14.6 µM
COCCn1c(-c2ccc(OC)cc2)cnc1SCC(=O)Nc1cccc2ccccc12 | active: 7.31 µM
C[C@H]1O[C@H](C2CCCC2)CC2=C1C(=O)OC(C)(C)O2 | inactive
COc1ccc(NC(=O)CSc2nnc(Cc3cccn3C)n2CCc2ccccc2)cc1OC | active: 14.6 µM
O=C(NCCc1c[nH]c2ccccc12)OCCCCOC(=O)NCCc1c[nH]c2ccccc12 | inconclusive: 25.9 µM [cytotoxic, single point]
N#C/C(=C\c1ccc(N2CCCCC2)c([N+](=O)[O-])c1)c1nn(-c2ccccc2)c(N)c1C#N | inconclusive: 4.11 µM [cytotoxic, full curve]
COc1ccccc1Nc1nc(N)nc(CSc2nnc(C)s2)n1 | inactive
O=C(Nc1cccc(-c2nc3ncccc3o2)c1)c1cc2ccccc2o1 | inconclusive: 18.4 µM [cytotoxic, single point]
CN1/C(=C/C2CC(=O)N(c3ccc([N+](=O)[O-])cc3)C2=O)C(C)(C)c2ccccc21 (stereo unspecified) | inconclusive: 29.1 µM [cytotoxic, single point]
Cc1ccc(S(=O)(=O)NC(=O)c2ccc(-c3ccc(C)c4ccccc34)o2)cc1 | inactive
CC(=O)c1cc2c(cc1N/C(=N/S(=O)(=O)c1ccccc1)c1ccc(Cl)cc1)OCO2 | inconclusive: 2.06 µM [cytotoxic, partial curve, poor fit]
COc1ccc(NC(=O)c2cccc(S(=O)(=O)Nc3ccc(Br)cc3)c2)cn1 | inconclusive: 23.1 µM [cytotoxic, single point]
CC(C)c1ccc(NC(c2nnc(-c3ccccc3)o2)c2ccc(F)cc2Cl)cc1 (stereo unspecified) | inactive
CC(C)(C)NC(=O)CSc1nnc(C2CC2)n1-c1ccccc1 | inconclusive: 23.1 µM [cytotoxic, single point]
Cc1cc(C)c(OCC(=O)Nc2nc(-c3ccccn3)cs2)c(C)c1 | active: 6.51 µM
O=C(CSc1cccc2cccnc12)N/N=C/c1cccnc1 | inconclusive: 29.1 µM [cytotoxic, single point]
COc1ccc(N(CC(=O)NCCSCc2ccccc2C)S(=O)(=O)c2ccccc2)cc1 | active: 14.6 µM
COc1cccc(CNC(=O)C2CCN(S(=O)(=O)c3ccc(C)cc3)CC2)c1 | inactive

Shown in markdown: 14 of the compounds above.

| SMILES | Potency |
| --- | --- |
| C[C@H]1O[C@H](C2CCCC2)CC2=C1C(=O)OC(C)(C)O2 | inactive |
| COc1ccc(NC(=O)CSc2nnc(Cc3cccn3C)n2CCc2ccccc2)cc1OC | active: 14.6 µM |
| O=C(NCCc1c[nH]c2ccccc12)OCCCCOC(=O)NCCc1c[nH]c2ccccc12 | inconclusive: 25.9 µM [cytotoxic, single point] |
| N#C/C(=C\c1ccc(N2CCCCC2)c([N+](=O)[O-])c1)c1nn(-c2ccccc2)c(N)c1C#N | inconclusive: 4.11 µM [cytotoxic, full curve] |
| COc1ccccc1Nc1nc(N)nc(CSc2nnc(C)s2)n1 | inactive |
| O=C(Nc1cccc(-c2nc3ncccc3o2)c1)c1cc2ccccc2o1 | inconclusive: 18.4 µM [cytotoxic, single point] |
| CN1/C(=C/C2CC(=O)N(c3ccc([N+](=O)[O-])cc3)C2=O)C(C)(C)c2ccccc21 (stereo unspecified) | inconclusive: 29.1 µM [cytotoxic, single point] |
| Cc1ccc(S(=O)(=O)NC(=O)c2ccc(-c3ccc(C)c4ccccc34)o2)cc1 | inactive |
| CC(=O)c1cc2c(cc1N/C(=N/S(=O)(=O)c1ccccc1)c1ccc(Cl)cc1)OCO2 | inconclusive: 2.06 µM [cytotoxic, partial curve, poor fit] |
| COc1ccc(NC(=O)c2cccc(S(=O)(=O)Nc3ccc(Br)cc3)c2)cn1 | inconclusive: 23.1 µM [cytotoxic, single point] |
| CC(C)c1ccc(NC(c2nnc(-c3ccccc3)o2)c2ccc(F)cc2Cl)cc1 (stereo unspecified) | inactive |
| CC(C)(C)NC(=O)CSc1nnc(C2CC2)n1-c1ccccc1 | inconclusive: 23.1 µM [cytotoxic, single point] |
| Cc1cc(C)c(OCC(=O)Nc2nc(-c3ccccn3)cs2)c(C)c1 | active: 6.51 µM |
| O=C(CSc1cccc2cccnc12)N/N=C/c1cccnc1 | inconclusive: 29.1 µM [cytotoxic, single point] |

Following part

SMILES | Potency
O=C(NC1CCCCC1)C(CCc1ccccc1)N1CCc2ccccc2C1 (stereo unspecified) | inconclusive: 29.1 µM [cytotoxic, single point]
CC(C)=CCSc1nnc(CCNC(=O)OC(C)(C)C)o1 | active: 20.6 µM
CC(C)CNC(=O)CN1C(=O)NC2(CCCc3ccccc32)C1=O (stereo unspecified) | inconclusive: 23.1 µM [rising, partial curve, poor fit]
CCc1nc(C)cc2c1sc1ccccc12 | inactive
CS(=O)(=O)N(CC(=O)NC1CCCC1)Cc1ccc(Cl)cc1 | active: 14.6 µM
CCCCCCCC(=O)N/N=C/c1cccnc1 | inactive
Cn1cc(CN2CCC(n3nccc3NC(=O)c3ccccc3Cl)CC2)cn1 | inconclusive: 20.6 µM [rising, partial curve, poor fit]
O=Cc1ccc(N2N=C(c3ccccc3)CC2c2ccccc2)cc1 (stereo unspecified) | inactive
O=C(Cc1csc(Nc2nc(=S)[nH]c3ccccc23)n1)N1CCN(c2cccc(Cl)c2)CC1 | active: 18.4 µM
CC(=O)c1cc(-c2ccccc2)n(CCC(=O)Nc2ccc(C(C)C)cc2)c1C | inconclusive: 25.9 µM [cytotoxic, single point]
COc1ccc(OC)c(NC(=O)c2nnn(CC(=O)Nc3ccc4c(c3)OCO4)c2N)c1 | inconclusive: 29.1 µM [rising, single point]
CCOc1ccc(NC(=O)CC2C(=O)N(c3ccccc3)C(=O)N2Cc2ccco2)cc1 (stereo unspecified) | inconclusive: 8.2 µM [cytotoxic, partial curve]
Cc1ccc(C)c(S(=O)(=O)N2CCN(C(=O)c3cccn3C)CC2)c1 | inactive
Cc1ccc(-n2ccnc(NCCc3ccc(S(N)(=O)=O)cc3)c2=O)c(C)c1 | inactive
O=C(NCC1CCCO1)c1ccc(NC(=O)c2cccc([N+](=O)[O-])c2)cc1 (stereo unspecified) | inconclusive: 18.4 µM [rising, single point]
CCn1nc(NC(=O)c2ccccc2)c2cc3cccc(C)c3nc21 | inactive
COc1ccccc1OCCNc1cc(N2CCCCC2)ccc1[N+](=O)[O-] | inconclusive: 9.2 µM [cytotoxic, partial curve]
COc1ccc2[nH]c3c(=O)n(CCCCC(=O)NCCN4CCCC4)c(=S)[nH]c3c2c1 | inconclusive: 29.1 µM [rising, single point]
O=C(NCCCN1CCOCC1)c1cccc(S(=O)(=O)N2CCc3ccccc3C2)c1 | inactive
CCOC(=O)c1nn(-c2ccccc2C)c2nc(Nc3ccccc3)cc(=O)n12 | inactive
Cc1nc2ccccc2c(=O)n1NC(=O)COc1ccccc1 | inactive
CCOC(=O)N1CCN(c2c(NCc3ccccn3)c(=O)c2=O)CC1 | inconclusive: 32.6 µM [cytotoxic, single point]
Cc1cc(C)n2c(Nc3c(C)cccc3C)c(-c3ccccn3)nc2n1 | inconclusive: 1.46 µM [cytotoxic, partial curve]
